Data as given in article PMC7044329.

Protein sequences, listed by entry. Tags and fused reporters are not part of them.
UniProt Q9Y2F5: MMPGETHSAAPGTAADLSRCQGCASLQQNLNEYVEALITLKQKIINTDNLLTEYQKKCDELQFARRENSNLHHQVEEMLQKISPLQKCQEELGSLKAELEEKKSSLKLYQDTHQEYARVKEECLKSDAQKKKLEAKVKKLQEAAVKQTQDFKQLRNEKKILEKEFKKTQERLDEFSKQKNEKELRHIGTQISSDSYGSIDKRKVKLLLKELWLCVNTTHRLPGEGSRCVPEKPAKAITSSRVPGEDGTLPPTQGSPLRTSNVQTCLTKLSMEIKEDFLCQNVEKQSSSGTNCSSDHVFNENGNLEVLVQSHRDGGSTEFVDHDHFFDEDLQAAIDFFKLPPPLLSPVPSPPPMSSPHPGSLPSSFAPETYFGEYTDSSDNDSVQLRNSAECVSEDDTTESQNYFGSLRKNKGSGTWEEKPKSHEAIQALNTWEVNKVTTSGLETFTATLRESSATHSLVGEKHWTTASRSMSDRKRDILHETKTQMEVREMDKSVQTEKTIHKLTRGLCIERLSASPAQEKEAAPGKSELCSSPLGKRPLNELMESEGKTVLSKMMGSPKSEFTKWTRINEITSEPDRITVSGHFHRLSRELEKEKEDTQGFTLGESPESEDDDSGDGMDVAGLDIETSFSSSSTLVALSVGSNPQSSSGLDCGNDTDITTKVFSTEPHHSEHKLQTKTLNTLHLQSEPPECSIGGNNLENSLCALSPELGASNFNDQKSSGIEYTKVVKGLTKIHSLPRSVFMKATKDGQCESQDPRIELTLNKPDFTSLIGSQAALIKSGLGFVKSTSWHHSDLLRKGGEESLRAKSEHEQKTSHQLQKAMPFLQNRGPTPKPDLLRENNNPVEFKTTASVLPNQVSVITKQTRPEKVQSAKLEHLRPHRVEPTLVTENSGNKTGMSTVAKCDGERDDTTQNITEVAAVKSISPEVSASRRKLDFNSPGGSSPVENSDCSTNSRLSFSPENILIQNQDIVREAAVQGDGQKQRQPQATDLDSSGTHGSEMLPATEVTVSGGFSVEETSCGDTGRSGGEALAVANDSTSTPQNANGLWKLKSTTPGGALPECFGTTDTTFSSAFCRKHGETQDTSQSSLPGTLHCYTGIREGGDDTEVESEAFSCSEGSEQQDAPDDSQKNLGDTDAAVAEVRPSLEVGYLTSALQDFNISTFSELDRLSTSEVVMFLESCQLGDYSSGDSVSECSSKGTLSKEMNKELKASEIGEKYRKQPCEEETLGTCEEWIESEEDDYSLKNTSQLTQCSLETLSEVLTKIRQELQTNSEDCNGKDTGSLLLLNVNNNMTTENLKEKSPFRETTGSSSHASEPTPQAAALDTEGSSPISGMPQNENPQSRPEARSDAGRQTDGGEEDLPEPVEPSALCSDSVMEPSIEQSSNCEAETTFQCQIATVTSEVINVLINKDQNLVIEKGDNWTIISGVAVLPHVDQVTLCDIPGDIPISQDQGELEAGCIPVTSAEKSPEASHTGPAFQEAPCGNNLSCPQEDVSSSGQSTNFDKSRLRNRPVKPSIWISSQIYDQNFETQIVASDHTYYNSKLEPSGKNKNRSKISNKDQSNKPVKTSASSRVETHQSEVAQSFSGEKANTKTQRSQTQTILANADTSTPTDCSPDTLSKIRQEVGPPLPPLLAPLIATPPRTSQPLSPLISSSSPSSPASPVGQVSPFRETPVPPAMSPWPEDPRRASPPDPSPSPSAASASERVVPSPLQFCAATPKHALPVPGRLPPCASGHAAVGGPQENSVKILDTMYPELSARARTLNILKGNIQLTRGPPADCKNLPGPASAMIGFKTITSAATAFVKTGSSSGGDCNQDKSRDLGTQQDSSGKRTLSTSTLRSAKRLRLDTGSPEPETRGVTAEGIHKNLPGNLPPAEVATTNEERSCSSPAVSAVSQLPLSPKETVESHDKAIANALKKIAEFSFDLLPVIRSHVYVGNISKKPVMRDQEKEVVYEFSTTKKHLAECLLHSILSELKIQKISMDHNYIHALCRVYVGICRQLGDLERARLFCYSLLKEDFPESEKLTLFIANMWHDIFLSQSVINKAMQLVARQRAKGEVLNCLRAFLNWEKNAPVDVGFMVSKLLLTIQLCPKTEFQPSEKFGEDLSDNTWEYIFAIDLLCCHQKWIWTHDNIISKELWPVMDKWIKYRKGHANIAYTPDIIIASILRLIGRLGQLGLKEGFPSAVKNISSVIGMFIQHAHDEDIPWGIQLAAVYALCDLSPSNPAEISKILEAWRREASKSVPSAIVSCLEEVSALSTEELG

Each binder was assayed against FLAG-tagged ICE1 (interactor of little elongation complex ELL subunit 1) (UniProt Q9Y2F5) (assay: affinity purification with mass spectrometry; anti-FLAG agarose purification from nuclear extracts (prepared with Benzonase) of 293FRT cells stably expressing FLAG-ICE1, washes with 0.15 M NaCl, 0.1% Triton X-100, elution with FLAG peptide; MudPIT and gel-based mass spectrometry; parental cells as control).

| Binder | binding |
| --- | --- |
| CPSF3 (CPSF73) (protein, UniProt Q9UKF6 1-684) MSAIPAEESDQLLIRPLGAGQEVGRSCIILEFKGRKIMLDCGIHPGLEGMDALPYIDLIDPAEIDLLLISHFHLDHCGALPWFLQKTSFKGRTFMTHATKAIYRWLLSDYVKVSNISADDMLYTETDLEESMDKIETINFHEVKEVAGIKFWCYHAGHVLGAAMFMIEIAGVKLLYTGDFSRQEDRHLMAAEIPNIKPDILIIESTYGTHIHEKREEREARFCNTVHDIVNRGGRGLIPVFALGRAQELLLILDEYWQNHPELHDIPIYYASSLAKKCMAVYQTYVNAMNDKIRKQININNPFVFKHISNLKSMDHFDDIGPSVVMASPGMMQSGLSRELFESWCTDKRNGVIIAGYCVEGTLAKHIMSEPEEITTMSGQKLPLKMSVDYISFSAHTDYQQTSEFIRALKPPHVILVHGEQNEMARLKAALIREYEDNDEVHIEVHNPRNTEAVTLNFRGEKLAKVMGFLADKKPEQGQRVSGILVKRNFNYHILSPCDLSNYTDLAMSTVKQTQAIPYTGPFNLLCYQLQKLTGDVEELEIQEKPALKVFKNITVIQEPGMVVLEWLANPSNDMYADTVTTVILEVQSNPKIRKGAVQKVSKKLEMHVYSKRLEIMLQDIFGEDCVSVKDDSILSVTVDGKTANLNLETRTVECEEGSEDDESLREMVELAAQRLYEALTPVH | binds |
| ZC3H18 (protein, UniProt Q86VM9 1-953) MDVAESPERDPHSPEDEEQPQGLSDDDILRDSGSDQDLDGAGVRASDLEDEESAARGPSQEEEDNHSDEEDRASEPKSQDQDSEVNELSRGPTSSPCEEEGDEGEEDRTSDLRDEASSVTRELDEHELDYDEEVPEEPAPAVQEDEAEKAGAEDDEEKGEGTPREEGKAGVQSVGEKESLEAAKEKKKEDDDGEIDDGEIDDDDLEEGEVKDPSDRKVRPRPTCRFFMKGNCTWGMNCRFIHPGVNDKGNYSLITKADPFPPNGAPPLGPHPLMPANPWGGPVVDEILPPPPPEPPTESAWERGLRHAKEVLKKATIRKEQEPDFEEKRFTVTIGEDEREFDKENEVFRDWNSRIPRDVRDTVLEPYADPYYDYEIERFWRGGQYENFRVQYTETEPYHNYRERERERERENRQRERERERERDRERERRQRERERERERERDKERQRRKEEWERERAKRDEKDRQHRDRDREKEREKEKGKPKPRSPQPPSRQAEPPKKEAATTGPQVKRADEWKDPWRRSKSPKKKLGVSVSPSRARRRRKTSASSASASNSSRSSSRSSSYSGSGSSRSRSRSSSYSSYSSRSSRHSSFSGSRSRSRSFSSSPSPSPTPSPHRPSIRTKGEPAPPPGKAGEKSVKKPAPPPAPPQATKTTAPVPEPTKPGDPREARRKERPARTPPRRRTLSGSGSGSGSSYSGSSSRSRSLSVSSVSSVSSATSSSSSAHSVDSEDMYADLASPVSSASSRSPAPAQTRKEKGKSKKEDGVKEEKRKRDSSTQPPKSAKPPAGGKSSQQPSTPQQAPPGQPQQGTFVAHKEIKLTLLNKAADKGSRKRYEPSDKDRQSPPPAKRPNTSPDRGSRDRKSGGRLGSPKPERQRGQNSKAPAAPADRKRQLSPQSKSSSKVTSVPGKASDPGAASTKSGKASTLSRREELLKQLKAVEDAIARKRAKIPGKA | binds |

The remaining lines, values ahead:

| binding | Binder |
| --- | --- |
| binds | zinc-finger CCCH-type containing 8 (ZC3H8) (protein, UniProt Q8N5P1 1-291) MDFENLFSKPPNPALGKTATDSDERIDDEIDTEVEETQEEKIKLECEQIPKKFRHSAISPKSSLHRKSRSKDYDVYSDNDICSQESEDNFAKELQQYIQAREMANAAQPEESTKKEGVKDTPQAAKQKNKNLKAGHKNGKQKKMKRKWPGPGNKGSNALLRNSGSQEEDGKPKEKQQHLSQAFINQHTVERKGKQICKYFLERKCIKGDQCKFDHDAEIEKKKEMCKFYVQGYCTRGENCLYLHNEYPCKFYHTGTKCYQGEYCKFSHAPLTPETQELLAKVLDTEKKSCK |
| binds | ubiquitin-specific peptidase-like 1 (USPL1) (protein, UniProt Q5W0Q7 1-1092) MMDSPKIGNGLPVIGPGTDIGISSLHMVGYLGKNFDSAKVPSDEYCPACREKGKLKALKTYRISFQESIFLCEDLQCIYPLGSKSLNNLISPDLEECHTPHKPQKRKSLESSYKDSLLLANSKKTRNYIAIDGGKVLNSKHNGEVYDETSSNLPDSSGQQNPIRTADSLERNEILEADTVDMATTKDPATVDVSGTGRPSPQNEGCTSKLEMPLESKCTSFPQALCVQWKNAYALCWLDCILSALVHSEELKNTVTGLCSKEESIFWRLLTKYNQANTLLYTSQLSGVKDGDCKKLTSEIFAEIETCLNEVRDEIFISLQPQLRCTLGDMESPVFAFPLLLKLETHIEKLFLYSFSWDFECSQCGHQYQNRHMKSLVTFTNVIPEWHPLNAAHFGPCNNCNSKSQIRKMVLEKVSPIFMLHFVEGLPQNDLQHYAFHFEGCLYQITSVIQYRANNHFITWILDADGSWLECDDLKGPCSERHKKFEVPASEIHIVIWERKISQVTDKEAACLPLKKTNDQHALSNEKPVSLTSCSVGDAASAETASVTHPKDISVAPRTLSQDTAVTHGDHLLSGPKGLVDNILPLTLEETIQKTASVSQLNSEAFLLENKPVAENTGILKTNTLLSQESLMASSVSAPCNEKLIQDQFVDISFPSQVVNTNMQSVQLNTEDTVNTKSVNNTDATGLIQGVKSVEIEKDAQLKQFLTPKTEQLKPERVTSQVSNLKKKETTADSQTTTSKSLQNQSLKENQKKPFVGSWVKGLISRGASFMPLCVSAHNRNTITDLQPSVKGVNNFGGFKTKGINQKASHVSKKARKSASKPPPISKPPAGPPSSNGTAAHPHAHAASEVLEKSGSTSCGAQLNHSSYGNGISSANHEDLVEGQIHKLRLKLRKKLKAEKKKLAALMSSPQSRTVRSENLEQVPQDGSPNDCESIEDLLNELPYPIDIASESACTTVPGVSLYSSQTHEEILAELLSPTPVSTELSENGEGDFRYLGMGDSHIPPPVPSEFNDVSQNTHLRQDHNYCSPTKKNPCEVQPDSLTNNACVRTLNLESPMKTDIFDEFFSSSALNALANDTLDLPHFDEYLFENY |

No constants are given. Whether binding was seen depends on the method and setting. In cells and extracts the contact can be indirect. Here binding means that the protein was enriched with, or labelled near, the bait; the list need not be complete.
